PubChem BioAssay AID1224830 – NIAID | 2016

- Purpose: 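Genes whose knock-down alters the TNF-alpha reporter response to LPS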 (primary screen)
- Cell system: human THP-1 monocytic leukaemia cells, TNF dual-luciferase reporter clone, PMA-differentiated to macrophage-like cells
- Reagent: siRNA pool against human genes, 50 nM
- Duration: LPS for 4 h, given about 3 days after siRNA transfection
- Treatment: bacterial LPS (TLR4 ligand), 10 ng/ml
- Detection: 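Ratio of firefly to renilla light, scaled to the plate median and expressed as a robust z-score per replicate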
- Reading the numbers: TNF reporter robust z-score: higher = stronger TNF reporter response to LPS
- Active means: 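Each well counts as active if its z-score is over 2.8 or under -1.5; controls are left without a call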
The whole screen tested about 18,000 reagents; below is an unselected part. Of all reagents, about 2,900 (16%) got an active call. 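Calls are made per well; low scores hint the gene aids the LPS response, high scores that it dampens it.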 Entries without a mark were called inactive. Repeated entries: four replicate wells of each siRNA pool.

| gene | TNF reporter robust z-score |
| --- | --- |
| FZD4 (frizzled class receptor 4) | 0.28 |
| FZD4 (frizzled class receptor 4) | -0.46 |
| FZD4 (frizzled class receptor 4) | -0.11 |
| FZD4 (frizzled class receptor 4) | 0.3 |
| TBX20 (T-box transcription factor 20) | 0.25 |
| TBX20 (T-box transcription factor 20) | 1.42 |
| TBX20 (T-box transcription factor 20) | 0.28 |
| TBX20 (T-box transcription factor 20) | 0.79 |
| ANKRD11 (ankyrin repeat domain 11) | -0.44 |
| ANKRD11 (ankyrin repeat domain 11) | -0.27 |
| ANKRD11 (ankyrin repeat domain 11) | -0.81 |
| ANKRD11 (ankyrin repeat domain 11) | 0.78 |
| EGFL7 (EGF like domain multiple 7) | 1.78 |
| EGFL7 (EGF like domain multiple 7) | 1.53 |
| EGFL7 (EGF like domain multiple 7) | 0.8 |
| EGFL7 (EGF like domain multiple 7) | 0.39 |
| MRTO4 (MRT4 homolog, ribosome maturation factor) | -1.29 |
| MRTO4 (MRT4 homolog, ribosome maturation factor) | -0.96 |
| MRTO4 (MRT4 homolog, ribosome maturation factor) | -0.18 |
| MRTO4 (MRT4 homolog, ribosome maturation factor) | -0.53 |
| ZNF384 (zinc finger protein 384) | -1.12 |
| ZNF384 (zinc finger protein 384) | -1.02 |
| ZNF384 (zinc finger protein 384) | -1.29 |
| ZNF384 (zinc finger protein 384) | -1.24 |
| SPIN3 (spindlin family member 3) | 0.83 |
| SPIN3 (spindlin family member 3) | 0.21 |
| SPIN3 (spindlin family member 3) | 2.59 |
| SPIN3 (spindlin family member 3) | -0.2 |
| HOXB1 (homeobox B1) | -0.02 |
| HOXB1 (homeobox B1) | 0.28 |
| HOXB1 (homeobox B1) | 0.4 |
| HOXB1 (homeobox B1) | 0.48 |
| CDC42 (cell division cycle 42) | -1.08 |
| CDC42 (cell division cycle 42) | -1.22 |
| CDC42 (cell division cycle 42) | -1.18 |
| CDC42 (cell division cycle 42) | -0.68 |
| NANOS2 (nanos C2HC-type zinc finger 2) | -0.61 |
| NANOS2 (nanos C2HC-type zinc finger 2) | 2.53 |
| NANOS2 (nanos C2HC-type zinc finger 2) | 1.31 |
| NANOS2 (nanos C2HC-type zinc finger 2) | -0.09 |
| KCNJ15 (potassium inwardly rectifying channel subfamily J member 15) | -0.07 |
| KCNJ15 (potassium inwardly rectifying channel subfamily J member 15) | 0.4 |
| KCNJ15 (potassium inwardly rectifying channel subfamily J member 15) | -1.33 |
| KCNJ15 (potassium inwardly rectifying channel subfamily J member 15) | -0.17 |
| SENP3 (SUMO specific peptidase 3) | 0.61 |
| SENP3 (SUMO specific peptidase 3) | 1.57 |
| SENP3 (SUMO specific peptidase 3) | 0.01 |
| SENP3 (SUMO specific peptidase 3) | 0.26 |
| ACTRT3 (actin related protein T3) | -0.63 |
| ACTRT3 (actin related protein T3) | 0 |
| ACTRT3 (actin related protein T3) | 0.24 |
| ACTRT3 (actin related protein T3) | -0.49 |
| SIAE (sialic acid acetylesterase) | 0.62 |
| SIAE (sialic acid acetylesterase) | 1.54 |
| SIAE (sialic acid acetylesterase) | 0.59 |
| SIAE (sialic acid acetylesterase) | 0.73 |
| PPFIA1 (PPFI scaffold protein A1) | 0.38 |
| PPFIA1 (PPFI scaffold protein A1) | 1.29 |
| PPFIA1 (PPFI scaffold protein A1) | 1.5 |
| PPFIA1 (PPFI scaffold protein A1) | 1.93 |
| APOLD1 (apolipoprotein L domain containing 1) | 0.52 |
| APOLD1 (apolipoprotein L domain containing 1) | 1.09 |
| APOLD1 (apolipoprotein L domain containing 1) | 0.13 |
| APOLD1 (apolipoprotein L domain containing 1) | 0.33 |
| PRR23E (PRR23 family member E) | -0.92 |
| PRR23E (PRR23 family member E) | 0.53 |
| PRR23E (PRR23 family member E) | 2.24 |
| PRR23E (PRR23 family member E) | 0.98 |
| CHKA (choline kinase alpha) | 0.41 |
| CHKA (choline kinase alpha) | -0.41 |
| CHKA (choline kinase alpha) | 1.18 |
| CHKA (choline kinase alpha) | -0.43 |
| CSNK1G2 (casein kinase 1 gamma 2) | -0.4 |
| CSNK1G2 (casein kinase 1 gamma 2) | 0.39 |
| CSNK1G2 (casein kinase 1 gamma 2) | 0.07 |
| CSNK1G2 (casein kinase 1 gamma 2) | 0.1 |
| FBXW12 (F-box and WD repeat domain containing 12) | 0.76 |
| FBXW12 (F-box and WD repeat domain containing 12) | -0.32 |
| FBXW12 (F-box and WD repeat domain containing 12) | -1.41 |
| FBXW12 (F-box and WD repeat domain containing 12) | -0.37 |
| AVPR1A (arginine vasopressin receptor 1A) | -1.07 |
| AVPR1A (arginine vasopressin receptor 1A) | -1.53 (active) |
| AVPR1A (arginine vasopressin receptor 1A) | -1.28 |
| AVPR1A (arginine vasopressin receptor 1A) | -0.96 |
| AGPAT2 (1-acylglycerol-3-phosphate O-acyltransferase 2) | -0.66 |
| AGPAT2 (1-acylglycerol-3-phosphate O-acyltransferase 2) | 0.73 |
| AGPAT2 (1-acylglycerol-3-phosphate O-acyltransferase 2) | -0.86 |
| AGPAT2 (1-acylglycerol-3-phosphate O-acyltransferase 2) | -0.1 |
| EZHIP (EZH inhibitory protein) | -0.41 |
| EZHIP (EZH inhibitory protein) | -0.06 |
| EZHIP (EZH inhibitory protein) | 0.36 |
| EZHIP (EZH inhibitory protein) | -0.76 |
| UFSP2 (UFM1 specific peptidase 2) | -0.3 |
| UFSP2 (UFM1 specific peptidase 2) | 0.54 |
| UFSP2 (UFM1 specific peptidase 2) | -0.63 |
| UFSP2 (UFM1 specific peptidase 2) | 1.37 |
| CAV3 (caveolin 3) | -1.48 |
| CAV3 (caveolin 3) | -1.19 |
| CAV3 (caveolin 3) | -1.51 (active) |
| CAV3 (caveolin 3) | -1.38 |
| WASHC3 (WASH complex subunit 3) | 0.1 |
| WASHC3 (WASH complex subunit 3) | -0.35 |
| WASHC3 (WASH complex subunit 3) | 0.5 |
| WASHC3 (WASH complex subunit 3) | 0.35 |
| C2orf15 (chromosome 2 open reading frame 15) | -1.25 |
| C2orf15 (chromosome 2 open reading frame 15) | 0.03 |
| C2orf15 (chromosome 2 open reading frame 15) | -0.35 |
| C2orf15 (chromosome 2 open reading frame 15) | -0.77 |
| REXO4 (RNA exonuclease 4) | -0.57 |
| REXO4 (RNA exonuclease 4) | -0.23 |
| REXO4 (RNA exonuclease 4) | -0.01 |
| REXO4 (RNA exonuclease 4) | 0.1 |
| FAM204A (family with sequence similarity 204 member A) | 2.96 (active) |
| FAM204A (family with sequence similarity 204 member A) | -0.32 |
| FAM204A (family with sequence similarity 204 member A) | 0.4 |
| FAM204A (family with sequence similarity 204 member A) | 0.7 |
| OR2A4 (olfactory receptor family 2 subfamily A member 4) | 0.14 |
| OR2A4 (olfactory receptor family 2 subfamily A member 4) | 0.81 |
| OR2A4 (olfactory receptor family 2 subfamily A member 4) | 0.79 |
| OR2A4 (olfactory receptor family 2 subfamily A member 4) | -0.2 |
| SLC22A16 | 0.28 |
| SLC22A16 | -0.21 |
| SLC22A16 | 1.14 |
| SLC22A16 | 0.12 |
| MYH11 (myosin heavy chain 11) | -0.48 |
| MYH11 (myosin heavy chain 11) | 0.12 |
| MYH11 (myosin heavy chain 11) | -0.53 |
| MYH11 (myosin heavy chain 11) | -0.04 |
| EME2 (essential meiotic structure-specific endonuclease subunit 2) | 1.02 |
| EME2 (essential meiotic structure-specific endonuclease subunit 2) | 1.79 |
| EME2 (essential meiotic structure-specific endonuclease subunit 2) | 2.35 |
| EME2 (essential meiotic structure-specific endonuclease subunit 2) | 2.02 |
| TAS1R3 (taste 1 receptor member 3) | -0.38 |
| TAS1R3 (taste 1 receptor member 3) | 0.24 |
| TAS1R3 (taste 1 receptor member 3) | -0.64 |
| TAS1R3 (taste 1 receptor member 3) | -0.04 |
| C1orf216 (chromosome 1 open reading frame 216) | 0.94 |
| C1orf216 (chromosome 1 open reading frame 216) | 1.75 |
| C1orf216 (chromosome 1 open reading frame 216) | -0.02 |
| C1orf216 (chromosome 1 open reading frame 216) | 1.19 |
